Measurements reported in PubChem BioAssay AID602196 (INSERM, 2012)
This is one part, drawn at random, of about 23,000 reagents. 455 of all reagents (2%) were called active. 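Active includes both protection and sensitisation; some change values fall well beyond the stated -50 to +50 range.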 Reagents against one gene are numbered here. Further read-outs or replicates are left out here. No sequences are given here. Not stated in the record: the amount of reagent.

- Aim: 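Modifiers of cisplatin sensitivity in A549 cells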
- Cells: human A549 lung cancer cells
- Knock-down reagent: siRNA pair against human genes
- Time to read-out: 48 h transfection before cisplatin; time from cisplatin to read-out not stated
- Conditions: cisplatin at a dose killing half of control-siRNA cells; exact dose and duration not given
- Detection: 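Shift in cisplatin death relative to control siRNA, from -50 (all cells die) to +50 (no cells die); siRNAs harmful on their own scored 0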
- Direction: two-siRNA summed score (-2 to +2): higher = both siRNAs protect from cisplatin killing; -2 means both sensitise; mean protection from cisplatin (shift in death) and protection from cisplatin (shift in death), siRNA C: higher = protection from cisplatin killing
- Call rule: 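siRNAs harmful alone (LDH or WST-1) get 0; others get +1 for less and -1 for more cisplatin killing; genes are active when the two siRNAs give the same sign, summing to ±2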
- Calls: active = both siRNAs shift cisplatin killing the same way; inactive = no consistent shift, or siRNA harmful alone

Gene	reagent no.	two-siRNA summed score (-2 to +2)	mean protection from cisplatin (shift in death) (%)	protection from cisplatin (shift in death), siRNA C (%)	Outcome
FAM167B (family with sequence similarity 167 member B)	1	0	6	-2.1	inactive
SERP1 (stress associated endoplasmic reticulum protein 1)	1	0	10	14.2	inactive
LMO4 (LIM domain only 4)	1	0	12.2	8.3	inactive
FKBP4 (FKBP prolyl isomerase 4)	1	0	27.4	37.5	inactive
MTMR10 (myotubularin related protein 10)	1	0	1.4	-2.9	inactive
LDLRAP1 (low density lipoprotein receptor adaptor protein 1)	1	0	-10.1	-12.9	inactive
DAGLA (diacylglycerol lipase alpha)	1	2	13.9	12.3	active
XYLT1 (xylosyltransferase 1)	1	-1	-16.8	-26.1	inactive
MIR9-1HG (MIR9-1 host gene)	1	1	8.2	12.3	inactive
EXOSC4 (exosome component 4)	1	0	-0.9	-0.2	inactive
MAP2K6 (mitogen-activated protein kinase kinase 6)	1	0	1.1	0.2	inactive
CREB3L3 (cAMP responsive element binding protein 3 like 3)	1	0	15.1	18.3	inactive
GPRASP1 (G protein-coupled receptor associated sorting protein 1)	1	0	-5.5	-4.7	inactive
CYB5A (cytochrome b5 type A)	1	0	1.2	12	inactive
FEZ2 (fasciculation and elongation protein zeta 2)	1	0	3.6	8.3	inactive
CCDC144NL (CCDC144A N-terminal like (pseudogene))	1	2	20.7	27.2	active
DAD1 (defender against cell death 1)	1	0	-4	-1.7	inactive
CYP2C19 (cytochrome P450 family 2 subfamily C member 19)	1	0	5.1	9.2	inactive
CBLIF (cobalamin binding intrinsic factor)	1	-1	-6.1	-3.6	inactive
MYH1 (myosin heavy chain 1)	1	1	10.5	-2.7	inactive
TRIO (trio Rho guanine nucleotide exchange factor)	1	0	-7.6	-8	inactive
C6orf62 (chromosome 6 open reading frame 62)	1	0	5.9	10.4	inactive
CXCL11 (C-X-C motif chemokine ligand 11)	1	0	3.3	10.8	inactive
LIN28A (lin-28 RNA binding posttranscriptional regulator A)	1	0	11.6	9.8	inactive
HMX1 (H6 family homeobox 1)	1	1	12.5	13.5	inactive
RGS2 (regulator of G protein signaling 2)	1	-1	-7.6	-12.8	inactive

Entries listed so far whose gene name starts with L or l (3):
Gene	reagent no.	two-siRNA summed score (-2 to +2)	mean protection from cisplatin (shift in death) (%)	protection from cisplatin (shift in death), siRNA C (%)	Outcome
LMO4 (LIM domain only 4)	1	0	12.2	8.3	inactive
LDLRAP1 (low density lipoprotein receptor adaptor protein 1)	1	0	-10.1	-12.9	inactive
LIN28A (lin-28 RNA binding posttranscriptional regulator A)	1	0	11.6	9.8	inactive

Further entries:
Gene	reagent no.	two-siRNA summed score (-2 to +2)	mean protection from cisplatin (shift in death) (%)	protection from cisplatin (shift in death), siRNA C (%)	Outcome
FOXL2 (forkhead box L2)	1	-1	-6.6	-2.4	inactive
BPIFB4 (BPI fold containing family B member 4)	1	-1	-7.2	8.6	inactive
LOC441790	1	1	12.1	13.4	inactive
LOC440791	1	1	14.6	9.8	inactive
LOC392586	1	0	5.9	2.4	inactive
HLA-DQB2 (major histocompatibility complex, class II, DQ beta 2)	1	0	5.1	11.2	inactive
INSL6 (insulin like 6)	1	1	10.7	15.8	inactive
LOC392089	1	0	2.1	-1.6	inactive
CMTM7 (CKLF like MARVEL transmembrane domain containing 7)	1	0	2.2	7.8	inactive
POLR1D (RNA polymerase I and III subunit D)	1	0	0.3	-4.8	inactive
POLR1D (RNA polymerase I and III subunit D)	2	1	9	8.1	inactive
MGC9515	1	0	9.3	21.9	inactive
MICU1 (mitochondrial calcium uptake 1)	1	1	15.2	10.3	inactive
